The supplement of paper PMC9233669
Variants at the background level are over-represented here.

Columns and labels:
biotinyl-Leu-oxazolone = test: self-aminoacylation, catalytic enhancement (BLO) (fold over background); higher = more active; k-Seq, kA / k0A0; sequences stand for … in GGGAAUGGAUCCACAUCUACGAAUUC…UUCACUGCAGACUUGACGAAGCUG
Outline: (§1)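 Mutagenized RNA pools with a 21-nt variable region (0.43 μM) reacted with each biotinyl-aminoacyl-oxazolone at 2–1250 μM. Reactions ran in 50 μL HEPES/NaCl/KCl/MgCl2/CaCl2 buffer with 5% acetonitrile, pH 6.9–7.0, for 90 minutes at room temperature. Streptavidin-captured RNA was quantified by triplicate qPCR and Illumina sequencing, and per-sequence fraction reacted was fit to a pseudo-first-order model with 1000 bootstraps. Catalytic enhancement is median kA divided by the uncatalyzed rate, the low-activity peak of a bimodal Gaussian fit.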

biotinyl-Val-oxazolone = test: self-aminoacylation, catalytic enhancement (BVO) (fold over background); higher = more active; k-Seq, kA / k0A0; sequences stand for … in GGGAAUGGAUCCACAUCUACGAAUUC…UUCACUGCAGACUUGACGAAGCUG
Outline: as §1

biotinyl-Ile-oxazolone = test: self-aminoacylation, catalytic enhancement (BIO) (fold over background); higher = more active; k-Seq, kA / k0A0; sequences stand for … in GGGAAUGGAUCCACAUCUACGAAUUC…UUCACUGCAGACUUGACGAAGCUG
Outline: as §1

biotinyl-Trp-oxazolone = test: self-aminoacylation, catalytic enhancement (BWO) (fold over background); higher = more active; k-Seq, kA / k0A0; sequences stand for … in GGGAAUGGAUCCACAUCUACGAAUUC…UUCACUGCAGACUUGACGAAGCUG
Outline: as §1

biotinyl-Met-oxazolone = test: self-aminoacylation, catalytic enhancement (BMO) (fold over background); higher = more active; k-Seq, kA / k0A0; sequences stand for … in GGGAAUGGAUCCACAUCUACGAAUUC…UUCACUGCAGACUUGACGAAGCUG
Outline: as §1

| Sequence | self-aminoacylation (biotinyl-Leu-oxazolone) | self-aminoacylation (biotinyl-Val-oxazolone) | self-aminoacylation (biotinyl-Ile-oxazolone) | self-aminoacylation (biotinyl-Trp-oxazolone) | self-aminoacylation (biotinyl-Met-oxazolone) |
| --- | --- | --- | --- | --- | --- |
| AAAGUUGCUAAUAGUCGCAAG [Fam3.1 aminoacylation ribozyme variant] | 1.94 | 1.82 | 1.83 | 1.96 |  |
| AAAUUUGCUAACAGUCGCAAG [Fam3.1 aminoacylation ribozyme variant] | 1.57 | 1.64 |  | 1.44 | 1.3 |
| AAAUUUGCUAAUAGUAGCAAG [Fam3.1 aminoacylation ribozyme variant] | 1.26 | 1.27 | 1.59 | 1.96 | 1.38 |
| AAAUUUGCUAAUAGUCGCAGG [Fam3.1 aminoacylation ribozyme variant] | 2.47 | 1.79 | 1.97 | 3.16 | 2.11 |
| AAAUUUGCUAAUAGUCGUAAG [Fam3.1 aminoacylation ribozyme variant] | 1.27 | 1.46 | 1.44 | 4.02 | 1.39 |
| AAAUUUUCUAAUAGUCGCAAG [Fam3.1 aminoacylation ribozyme variant] |  |  |  | 1.81 | 1.73 |
| AACUUAGCUAAUAGUCGCAAG [Fam3.1 aminoacylation ribozyme variant] |  | 1.83 |  | 1.66 |  |
| AAGCUUGCUAAUAAUCGCAAG [Fam3.1 aminoacylation ribozyme variant] | 0.991 | 1.09 | 1.51 | 1.23 | 1.68 |
| AAGCUUGCUAUUAGUCGCAAG [Fam3.1 aminoacylation ribozyme variant] |  | 1.73 | 1.83 | 1.37 |  |
| AAGUAGGCUAAUAGUCGCAAG [Fam3.1 aminoacylation ribozyme variant] | 1.39 | 1.24 | 1.88 | 1.91 | 1.11 |
| AAGUAUGCUAAUAGUCGCUAG [Fam3.1 aminoacylation ribozyme variant] | 1.21 | 0.937 | 1.17 | 1.41 | 1.02 |
| AAGUCUGCUUAUAGUCGCAAG [Fam3.1 aminoacylation ribozyme variant] | 1.25 | 0.822 | 0.895 | 0.87 | 1.18 |
| AAGUUAGCUAAGAGUCGCAAG [Fam3.1 aminoacylation ribozyme variant] | 1.55 | 1.86 | 1.8 | 1.77 | 1.66 |
| AAGUUAGCUAAUAGUCGCAAG [Fam3.1 aminoacylation ribozyme variant] | 1.52 | 1.49 | 1.78 | 2.21 | 1.6 |
| AAGUUAGUUAAUAGUCGCAAG [Fam3.1 aminoacylation ribozyme variant] | 1.58 | 1.38 | 1.72 | 1.76 | 1.36 |
| AAGUUGGCUAAUAGUCCCAAG [Fam3.1 aminoacylation ribozyme variant] | 1.06 | 1.14 | 1.34 | 1.02 | 1.17 |
| AAGUUUCAUAAUAGUCGCAAG [Fam3.1 aminoacylation ribozyme variant] | 1.33 | 1.36 | 1.88 | 1.59 | 1.67 |
| AAGUUUCCUAAUAGUCGCAGG [Fam3.1 aminoacylation ribozyme variant] |  | 1.42 |  | 1.91 |  |
| AUUCACCCAGCUCAUCGGGUG [Fam2.2 aminoacylation ribozyme variant] |  |  |  | 1.96 |  |
| AUUCACCUAGGCCAUCGGCUG [Fam2.2 aminoacylation ribozyme variant] |  | 2.59 | 1.81 | 1.62 |  |

| Sequence | self-aminoacylation (biotinyl-Leu-oxazolone) | self-aminoacylation (biotinyl-Val-oxazolone) | self-aminoacylation (biotinyl-Ile-oxazolone) | self-aminoacylation (biotinyl-Trp-oxazolone) | self-aminoacylation (biotinyl-Met-oxazolone) |
| --- | --- | --- | --- | --- | --- |
| AUUCACCUAGGGCAUCGGGGG [Fam2.2 aminoacylation ribozyme variant] |  |  |  | 1.76 |  |
| AUUCACCUAGGUCAGCGGUUG [Fam2.2 aminoacylation ribozyme variant] | 1.96 | 1.68 | 1.81 | 1.51 |  |
| AUUCGCCUAGGUCAUAGGGUG [Fam2.2 aminoacylation ribozyme variant] |  | 1.87 | 1.58 | 1.72 |  |
| AUUCUCCUAGGUCAUAGGGUG [Fam2.2 aminoacylation ribozyme variant] |  | 1.72 | 1.84 | 1.93 |  |
| CCACACUUCAAGCAGUCGCUC [Fam1B.1 aminoacylation ribozyme variant] |  | 1.51 | 1.78 | 1.73 | 1.47 |
| CCACACUUCAUGCAAUCGGCC [Fam1B.1 aminoacylation ribozyme variant] |  |  |  | 1.5 |  |
| CCACAGUUCAAGCAAUCGCUC [Fam1B.1 aminoacylation ribozyme variant] |  | 1.76 | 1.98 | 1.96 | 1.65 |
| CGACACUUCAAUCAAUCGGUC [Fam1B.1 aminoacylation ribozyme variant] | 1.15 | 1.05 | 1.04 |  | 0.958 |
| CUAAUUCAAACAAUCGGUCUG [Fam1A.1 aminoacylation ribozyme variant] | 0.713 | 0.716 | 0.739 |  | 0.687 |
| CUACACUUCAAGCAGUCGGUC [Fam1B.1 aminoacylation ribozyme variant] | 0.741 | 0.758 | 0.775 |  | 0.739 |
| CUACUUACAACAAUCGGUCUG [Fam1A.1 aminoacylation ribozyme variant] | 0.81 | 0.749 | 0.878 |  | 0.874 |
| CUACUUCAAACAAACGAUCUG [Fam1A.1 aminoacylation ribozyme variant] | 0.569 | 0.779 | 0.693 |  | 0.728 |
| CUACUUCAAACAAUCGGUCAG [Fam1A.1 aminoacylation ribozyme variant] | 0.906 | 0.882 | 0.838 |  | 0.797 |
| CUACUUCAAACAAUCGGUCGC [Fam1A.1 aminoacylation ribozyme variant] | 1.84 | 1.25 | 1.2 |  | 1.75 |
| CUACUUCAAACAAUCGGUCUC [Fam1A.1 aminoacylation ribozyme variant] | 1.42 | 1.04 | 0.938 |  | 1.01 |
| CUACUUCAAACAAUCGGUUUC [Fam1A.1 aminoacylation ribozyme variant] | 0.917 | 0.923 | 0.99 |  | 0.847 |
| CUACUUCAAAGAAGCGGUCUG [Fam1A.1 aminoacylation ribozyme variant] | 0.82 | 0.988 | 1.09 |  | 1.01 |
| CUACUUCAAAGAAUUGGUCUG [Fam1A.1 aminoacylation ribozyme variant] | 1.08 | 0.912 | 1.18 |  | 0.954 |
| CUACUUCAAGCAAUCGGUCUC [Fam1A.1 aminoacylation ribozyme variant] | 1.01 | 0.978 | 0.933 |  | 0.872 |
| CUACUUCAAUAAAUCGGUCUG [Fam1A.1 aminoacylation ribozyme variant] | 0.939 | 0.77 | 0.814 |  | 0.767 |

| Sequence | self-aminoacylation (biotinyl-Leu-oxazolone) | self-aminoacylation (biotinyl-Val-oxazolone) | self-aminoacylation (biotinyl-Ile-oxazolone) | self-aminoacylation (biotinyl-Trp-oxazolone) | self-aminoacylation (biotinyl-Met-oxazolone) |
| --- | --- | --- | --- | --- | --- |
| CUACUUUAAACAGUCGGUCUG [Fam1A.1 aminoacylation ribozyme variant] | 0.812 | 0.845 | 0.837 |  | 0.765 |
| CUAGUACAAACAAUCGGUCUG [Fam1A.1 aminoacylation ribozyme variant] | 0.802 | 0.775 | 0.837 |  | 0.725 |
| CUAUUUCAAUCAAUCGGUCUG [Fam1A.1 aminoacylation ribozyme variant] | 0.903 | 0.895 | 0.83 |  | 0.897 |
| CUCCUUCAAACAAUCGGUCAG [Fam1A.1 aminoacylation ribozyme variant] | 1.07 | 1.02 | 0.791 |  | 0.93 |
| CUGCACUUCAAGCAAUCGGUC [Fam1B.1 aminoacylation ribozyme variant] | 1.94 | 1.31 | 1.29 |  | 1.65 |
| CUGCUCCAAACAAUCGGUCUG [Fam1A.1 aminoacylation ribozyme variant] | 1.61 | 1.15 | 1.07 |  | 1.18 |
| CUGCUUCAAACAAUCGGUUUG [Fam1A.1 aminoacylation ribozyme variant] | 3.93 | 2.1 | 2.07 |  | 2.38 |
| CUUCUUCAACCAAUCGGUCUG [Fam1A.1 aminoacylation ribozyme variant] | 0.885 | 0.708 | 0.68 |  | 0.783 |
| GAGUUUGCUAAUAGUCGUAAG [Fam3.1 aminoacylation ribozyme variant] | 1.28 | 1.17 | 1.4 |  | 1.4 |
| GAGUUUUCUAAUAGUCGCAAG [Fam3.1 aminoacylation ribozyme variant] | 1.38 | 1.36 | 1.72 |  | 1.17 |
| GUCCUUCAAACAAUCGGUCUG [Fam1A.1 aminoacylation ribozyme variant] | 1.49 | 1.52 | 1.31 |  | 1.35 |
| GUUACCCUGGUCAUCGAGUAA [Fam2.1 aminoacylation ribozyme variant] | 21.8 | 7.98 | 6.86 |  | 22.6 |
| UAACACUUCAAGCAAUCGGUC [Fam1B.1 aminoacylation ribozyme variant] | 1.31 | 1.43 | 1.28 |  | 1.26 |
| UAGUUUGCUUAUAGUCGCAAG [Fam3.1 aminoacylation ribozyme variant] | 1.59 | 1.54 | 1.53 |  | 1.84 |
| UAGUUUGUUAAUAGUCGCAAG [Fam3.1 aminoacylation ribozyme variant] |  | 1.83 | 1.88 | 1.96 | 1.63 |
| UCACAGUUCAAGCAAUCGGUC [Fam1B.1 aminoacylation ribozyme variant] | 1.16 | 0.999 | 1.05 |  | 1.01 |
| UUAGUUCAAACAAUCGGUCUG [Fam1A.1 aminoacylation ribozyme variant] | 1.12 | 1.03 | 1.21 |  | 1.04 |
| UUAUUUCAAACAAUCGGUCUG [Fam1A.1 aminoacylation ribozyme variant] | 0.924 | 0.944 | 0.963 |  | 0.909 |
| UUUCACCUAGGUCAUCGGGUC [Fam2.2 aminoacylation ribozyme variant] | 1.72 |  | 1.58 | 1.86 | 1.46 |
